In patent US20110262386A1, “METHODS OF TREATING INFLAMMATION” (CAROLUS THERPEUTICS, INC., priority 2008, published 2011):
At least one compound was matched to its structure with a doubt left.

Tested on: primary human monocytes
Assay: Transwell chemotaxis of monocytes
Assay type: cell-based
Procedure: Pore sizes and intervals were 5 μm and 3 h (monocytes), 3 μm and 1.5 h (T cells), and […] and 1 h (neutrophils).

O=c1cc(N2CCOCC2)oc2c(-c3ccccc3)cccc12 [Ly294002, reference compound]
effect on MIF-induced monocyte chemotaxis/transmigration: abrogated
